Patent publication US20260199529A1, “EPITHELIAL CELL ADHESION MOLECULE-SPECIFIC PEPTIDE CONJUGATES AND METHODS” (REGENTS OF THE UNIVERSITY OF MICHIGAN, priority 2022, published 2026)
These are yes or no findings as the source states them, for the method shown. Some entries that bind do so weakly or less than the wild type.

What was measured:
[1] = molecular target: T1, Epithelial cell adhesion molecule (EpCAM) (human) (UniProt P16422); assay: competition against HPD*-IRDye800 on cells, 0-120 mM as printed
T1 sequence (looked up): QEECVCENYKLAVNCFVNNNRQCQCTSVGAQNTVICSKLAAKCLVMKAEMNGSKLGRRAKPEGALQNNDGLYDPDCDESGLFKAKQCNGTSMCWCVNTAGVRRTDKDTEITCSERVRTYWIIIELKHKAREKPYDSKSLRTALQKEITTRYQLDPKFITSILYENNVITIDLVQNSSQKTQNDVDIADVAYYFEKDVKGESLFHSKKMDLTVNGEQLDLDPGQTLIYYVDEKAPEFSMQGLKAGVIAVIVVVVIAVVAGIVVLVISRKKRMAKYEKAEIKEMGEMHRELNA

[2] = molecular target: T1, Epithelial cell adhesion molecule (EpCAM) (human); assay: competition against HPD*-IRDye800 on cells, fluorescence intensity
[3] = molecular target: T1, Epithelial cell adhesion molecule (EpCAM) (human); assay: confocal microscopy on Hep3B cells
[4] = molecular target: T1, Epithelial cell adhesion molecule (EpCAM) (human); assay: immunofluorescence on human HCC specimens ex vivo
[5] = molecular target: T1, Epithelial cell adhesion molecule (EpCAM) (human); assay: co-localization by confocal microscopy on Hep3B cells
[6] = molecular target: T1, Epithelial cell adhesion molecule (EpCAM) (human); assay: confocal microscopy, siRNA knockdown of EpCAM in Hep3B cells
[7] = molecular target: T1, Epithelial cell adhesion molecule (EpCAM) (human); assay: immunofluorescence on lung sections of the human HCC PDX model
[8] = molecular target: T1, Epithelial cell adhesion molecule (EpCAM) (human); assay: immunofluorescence on liver sections of the human HCC PDX model
[9] = molecular target: T1, Epithelial cell adhesion molecule (EpCAM) (human); assay: immunofluorescence on sections of human HCC xenograft tumor in mouse liver

Measured: binding

HPDMFTRTHSHN [unlabeled HPD*]
binds: [1] | [2]

HPDMFTRTHSHNGGGSC (IRDye800 attached via the C-terminal GGGSC linker) [HPD*-IRDye800]
not listed: [1] | [2]
binds: all other assays above
